In the supplement of paper PMC6411743:
± gives the standard deviation of the averaged measurements. This is one part of the list.

Amino acid sequences for entries named in this document (tags omitted). A change or cut given only in a name is not applied to a line headed by its entry.
UniProt Q9H6Q4: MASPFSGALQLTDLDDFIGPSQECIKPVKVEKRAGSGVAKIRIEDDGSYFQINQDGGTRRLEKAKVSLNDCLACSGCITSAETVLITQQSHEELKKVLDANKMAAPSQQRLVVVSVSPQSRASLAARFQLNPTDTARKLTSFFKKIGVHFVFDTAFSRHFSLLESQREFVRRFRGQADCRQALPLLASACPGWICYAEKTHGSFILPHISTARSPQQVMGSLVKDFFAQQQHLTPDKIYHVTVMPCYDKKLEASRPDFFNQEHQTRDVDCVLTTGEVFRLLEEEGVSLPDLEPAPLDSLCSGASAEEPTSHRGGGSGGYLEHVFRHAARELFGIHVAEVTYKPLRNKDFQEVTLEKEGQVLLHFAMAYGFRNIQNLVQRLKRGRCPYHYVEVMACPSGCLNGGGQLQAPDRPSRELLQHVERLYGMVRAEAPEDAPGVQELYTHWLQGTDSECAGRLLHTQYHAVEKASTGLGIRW
UniProt Q9NQ66: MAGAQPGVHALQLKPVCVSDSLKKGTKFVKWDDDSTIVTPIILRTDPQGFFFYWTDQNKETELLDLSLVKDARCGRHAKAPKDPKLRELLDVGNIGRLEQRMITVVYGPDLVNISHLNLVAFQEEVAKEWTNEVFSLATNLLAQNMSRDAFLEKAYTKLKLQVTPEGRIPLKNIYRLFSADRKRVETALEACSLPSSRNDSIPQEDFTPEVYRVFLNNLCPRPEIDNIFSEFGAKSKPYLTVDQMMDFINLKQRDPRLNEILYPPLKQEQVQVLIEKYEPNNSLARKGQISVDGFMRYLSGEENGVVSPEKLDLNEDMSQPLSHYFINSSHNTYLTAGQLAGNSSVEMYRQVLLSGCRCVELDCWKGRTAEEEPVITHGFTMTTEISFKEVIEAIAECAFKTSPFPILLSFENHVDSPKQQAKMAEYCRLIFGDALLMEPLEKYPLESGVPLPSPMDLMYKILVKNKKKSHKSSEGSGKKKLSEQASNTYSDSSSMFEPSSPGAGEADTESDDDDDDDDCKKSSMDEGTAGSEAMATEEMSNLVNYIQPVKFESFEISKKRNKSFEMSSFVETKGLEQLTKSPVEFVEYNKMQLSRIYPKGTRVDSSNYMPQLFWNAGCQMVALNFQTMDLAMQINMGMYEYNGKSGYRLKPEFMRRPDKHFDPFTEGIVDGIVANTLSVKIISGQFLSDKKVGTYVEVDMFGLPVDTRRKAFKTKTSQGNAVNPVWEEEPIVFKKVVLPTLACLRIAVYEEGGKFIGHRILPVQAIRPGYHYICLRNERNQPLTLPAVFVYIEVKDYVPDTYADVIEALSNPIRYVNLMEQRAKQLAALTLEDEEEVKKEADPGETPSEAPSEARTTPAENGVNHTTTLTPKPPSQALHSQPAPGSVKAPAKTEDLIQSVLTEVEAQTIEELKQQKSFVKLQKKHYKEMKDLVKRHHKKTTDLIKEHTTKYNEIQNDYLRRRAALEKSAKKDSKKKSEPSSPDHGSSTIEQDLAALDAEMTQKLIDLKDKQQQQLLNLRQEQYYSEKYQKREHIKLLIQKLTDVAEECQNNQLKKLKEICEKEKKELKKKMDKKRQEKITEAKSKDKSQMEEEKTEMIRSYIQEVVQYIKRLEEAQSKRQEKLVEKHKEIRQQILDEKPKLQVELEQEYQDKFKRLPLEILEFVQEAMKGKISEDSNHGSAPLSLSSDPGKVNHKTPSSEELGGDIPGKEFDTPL
UniProt Q9NRD1: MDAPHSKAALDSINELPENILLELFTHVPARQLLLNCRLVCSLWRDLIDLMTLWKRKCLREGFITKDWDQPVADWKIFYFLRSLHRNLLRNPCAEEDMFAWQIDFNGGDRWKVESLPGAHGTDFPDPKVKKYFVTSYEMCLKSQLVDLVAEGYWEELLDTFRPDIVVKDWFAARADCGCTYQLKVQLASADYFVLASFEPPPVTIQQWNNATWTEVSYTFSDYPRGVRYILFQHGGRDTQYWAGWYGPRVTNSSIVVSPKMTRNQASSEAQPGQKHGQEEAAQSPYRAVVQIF

Compound: Nc1nc2c(ncn2[C@@H]2O[C@H](COP(=O)(O)OP(=O)(O)OP(=O)(O)O)[C@@H](O)[C@H]2O)c(=O)[nH]1 [guanosine triphosphate]
Test: NP40-soluble protein abundance relative to vehicle (solubility fold change) (ratio); higher = more soluble protein in presence of GTP
Method: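 Solubility proteome profiling in Jurkat crude lysate. Lysate was treated with Mg-GTP (0.1-10 mM) for 10 min at room temperature and 3 min at 37 °C, then solubilised with 0.8% NP40 and benzonase, followed by ultracentrifugation. Proteins were quantified by TMT10 LC-MS/MS; the value is the NP40-soluble abundance relative to the NP40-processed vehicle, from 3 independent experiments.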

Row | Target | NP40-soluble protein abundance (concentration: 0.1mM) | NP40-soluble protein abundance (concentration: 0.5mM) | NP40-soluble protein abundance (concentration: 1mM) | NP40-soluble protein abundance (concentration: 2mM) | NP40-soluble protein abundance (concentration: 4mM) | NP40-soluble protein abundance (concentration: 6mM) | NP40-soluble protein abundance (concentration: 8mM) | NP40-soluble protein abundance (concentration: 10mM)
1 | UniProt Q9H6Q4 and related entries | 0.99 ± 0.07 | 1.03 ± 0.051 | 1.01 ± 0.067 | 0.976 ± 0.044 | 0.991 ± 0.059 | 0.94 ± 0.022 | 0.933 ± 0.042 | 0.931 ± 0.066
2 | UniProt Q9H330 and related entries | 0.908 ± 0.04 | 0.876 ± 0.06 | 0.796 ± 0.083 | 0.809 ± 0.017 | 0.799 ± 0.035 | 0.834 ± 0.028 | 0.81 ± 0.074 | 0.833 ± 0.037
3 | UniProt Q9H5V9 and related entries | 0.962 ± 0.014 | 0.9579 ± 0.0087 | 0.969 ± 0.056 | 0.945 ± 0.075 | 0.956 ± 0.078 | 1.01 ± 0.075 | 1.011 ± 0.0095 | 1.02 ± 0.081
4 | UniProt Q9NQ66 and related entries | 1.03 ± 0.044 | 1.04 ± 0.046 | 1.01 ± 0.12 | 0.994 ± 0.082 | 0.977 ± 0.095 | 0.966 ± 0.086 | 0.989 ± 0.066 | 0.968 ± 0.095
5 | FBXO6 (UniProt Q9NRD1) | 1.17 ± 0.17 | 1.07 ± 0.033 | 1.13 ± 0.062 | 1.03 ± 0.025 | 1.08 ± 0.13 | 0.969 ± 0.14 | 0.965 ± 0.17 | 1.05 ± 0.17
